Results are given in words; binding and its absence hold for the method and conditions named. Binding seen in cells or lysates may run through a third protein. Here binding means that the protein was enriched with, or labelled near, the bait; the list need not be complete.
Target: GFP-tagged tumor protein D54 (GFP-TPD54) (human) (UniProt O43399)
Assay: affinity purification with mass spectrometry; GFP-Trap beads, lysates of HeLa cells expressing GFP-TPD54 or GFP (control); lysis buffer 10 mM Tris-HCl pH 7.5, 150 mM NaCl, 0.5 mM EDTA, 0.5% NP-40; 1 h incubation; washes with 500 mM NaCl; four experiments, comparative volcano plot

Chains of the proteins cited; added tags and fusions are not shown.
UniProt O43399: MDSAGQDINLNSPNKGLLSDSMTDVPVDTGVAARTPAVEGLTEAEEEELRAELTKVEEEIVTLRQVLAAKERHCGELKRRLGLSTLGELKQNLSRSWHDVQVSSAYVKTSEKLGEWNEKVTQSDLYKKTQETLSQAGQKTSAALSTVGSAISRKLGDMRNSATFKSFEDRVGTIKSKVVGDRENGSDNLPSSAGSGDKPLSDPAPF
UniProt P61019: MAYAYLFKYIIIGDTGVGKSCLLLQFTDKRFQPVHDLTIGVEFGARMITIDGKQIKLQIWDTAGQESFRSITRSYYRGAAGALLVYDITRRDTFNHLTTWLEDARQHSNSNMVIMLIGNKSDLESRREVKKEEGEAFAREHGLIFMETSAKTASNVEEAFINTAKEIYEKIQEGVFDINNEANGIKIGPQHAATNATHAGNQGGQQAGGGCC
UniProt P51148: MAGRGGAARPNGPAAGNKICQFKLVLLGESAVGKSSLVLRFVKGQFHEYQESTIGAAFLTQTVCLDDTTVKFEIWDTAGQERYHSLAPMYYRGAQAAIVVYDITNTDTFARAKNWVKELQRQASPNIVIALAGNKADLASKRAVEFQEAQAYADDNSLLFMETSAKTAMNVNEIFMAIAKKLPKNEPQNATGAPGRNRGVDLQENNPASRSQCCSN

Rab2a (from UniProt P61019 1-212)
binding: binds

Rab5c (from UniProt P51148 1-216)
binding: binds

B1: tumor protein D52 (TPD52) (protein, UniProt P55327 1-224)
chain: MDCREMDLYEDYQSPFDFDAGVNKSYLYLSPSGNSSPPGSPTLQKFGLLRTDPVPEEGEDVAATISATETLSEEEQEELRRELAKVEEEIQTLSQVLAAKEKHLAEIKRKLGINSLQELKQNIAKGWQDVTATSAYKKTSETLSQAGQKASAAFSSVGSVITKKLEDVKNSPTFKSFEEKVENLKSKVGGTKPAGGDFGEVLNSAANASATTTEPLPEKTQESL
binding: binds

B2: TPD53 (TPD52L1) (protein, UniProt Q16890 1-204)
chain: MEAQAQGLLETEPLQGTDEDAVASADFSSMLSEEEKEELKAELVQLEDEITTLRQVLSAKERHLVEIKQKLGMNLMNELKQNFSKSWHDMQTTTAYKKTHETLSHAGQKATAAFSNVGTAISKKFGDMSYSIRHSISMPAMRNSPTFKSFEERVETTVTSLKTKVGGTNPNGGSFEEVLSSTAHASAQSLAGGSRRTKEEELQC
binding: binds
